Measurements: the supplement of paper PMC10849652
The other results are listed elsewhere or left out.

Sequences of proteins named here, by UniProt entry; tags and fusion partners are left off. A change or cut given only in a name is not applied to a line headed by its entry.
UniProt Q9UJS0: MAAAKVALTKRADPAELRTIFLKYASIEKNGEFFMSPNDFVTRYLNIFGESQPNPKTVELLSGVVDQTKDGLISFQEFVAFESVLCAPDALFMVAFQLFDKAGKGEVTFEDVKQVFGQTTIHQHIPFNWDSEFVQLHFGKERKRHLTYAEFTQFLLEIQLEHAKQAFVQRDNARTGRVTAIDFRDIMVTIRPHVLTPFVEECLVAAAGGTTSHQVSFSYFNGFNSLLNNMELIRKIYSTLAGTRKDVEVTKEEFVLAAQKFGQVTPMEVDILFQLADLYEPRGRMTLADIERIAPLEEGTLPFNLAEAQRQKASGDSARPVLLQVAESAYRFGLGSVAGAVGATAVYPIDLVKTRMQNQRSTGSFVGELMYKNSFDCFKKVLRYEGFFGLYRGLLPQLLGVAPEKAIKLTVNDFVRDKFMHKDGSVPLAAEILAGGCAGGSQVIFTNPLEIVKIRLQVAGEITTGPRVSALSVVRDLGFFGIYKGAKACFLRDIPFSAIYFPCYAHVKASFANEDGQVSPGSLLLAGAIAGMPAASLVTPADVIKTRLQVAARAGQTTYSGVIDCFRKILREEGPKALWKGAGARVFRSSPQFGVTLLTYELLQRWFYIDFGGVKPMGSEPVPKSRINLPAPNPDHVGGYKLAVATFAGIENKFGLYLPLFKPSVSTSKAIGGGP
UniProt P11166: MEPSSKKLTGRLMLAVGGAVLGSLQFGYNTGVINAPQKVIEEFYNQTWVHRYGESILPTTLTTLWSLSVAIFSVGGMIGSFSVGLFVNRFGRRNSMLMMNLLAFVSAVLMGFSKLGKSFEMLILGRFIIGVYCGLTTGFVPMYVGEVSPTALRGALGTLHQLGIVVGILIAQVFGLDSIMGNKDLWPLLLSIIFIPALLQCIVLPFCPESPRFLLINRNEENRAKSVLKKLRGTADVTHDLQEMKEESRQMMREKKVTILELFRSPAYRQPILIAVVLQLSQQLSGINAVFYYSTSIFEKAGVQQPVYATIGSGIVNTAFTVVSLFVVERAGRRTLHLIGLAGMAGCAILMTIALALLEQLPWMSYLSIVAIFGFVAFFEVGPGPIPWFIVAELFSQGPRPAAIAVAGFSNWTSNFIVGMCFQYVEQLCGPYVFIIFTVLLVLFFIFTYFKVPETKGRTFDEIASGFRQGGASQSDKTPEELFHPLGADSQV
UniProt Q9H936: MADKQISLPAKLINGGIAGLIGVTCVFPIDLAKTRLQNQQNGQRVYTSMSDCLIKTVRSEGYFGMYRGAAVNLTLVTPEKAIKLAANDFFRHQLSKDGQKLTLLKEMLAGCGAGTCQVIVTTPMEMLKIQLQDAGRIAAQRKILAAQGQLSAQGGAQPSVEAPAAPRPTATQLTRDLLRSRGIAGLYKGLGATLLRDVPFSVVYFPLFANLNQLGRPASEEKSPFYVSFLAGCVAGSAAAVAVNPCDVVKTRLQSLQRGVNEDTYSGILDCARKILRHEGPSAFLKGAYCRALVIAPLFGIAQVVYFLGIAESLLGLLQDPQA
UniProt P31641: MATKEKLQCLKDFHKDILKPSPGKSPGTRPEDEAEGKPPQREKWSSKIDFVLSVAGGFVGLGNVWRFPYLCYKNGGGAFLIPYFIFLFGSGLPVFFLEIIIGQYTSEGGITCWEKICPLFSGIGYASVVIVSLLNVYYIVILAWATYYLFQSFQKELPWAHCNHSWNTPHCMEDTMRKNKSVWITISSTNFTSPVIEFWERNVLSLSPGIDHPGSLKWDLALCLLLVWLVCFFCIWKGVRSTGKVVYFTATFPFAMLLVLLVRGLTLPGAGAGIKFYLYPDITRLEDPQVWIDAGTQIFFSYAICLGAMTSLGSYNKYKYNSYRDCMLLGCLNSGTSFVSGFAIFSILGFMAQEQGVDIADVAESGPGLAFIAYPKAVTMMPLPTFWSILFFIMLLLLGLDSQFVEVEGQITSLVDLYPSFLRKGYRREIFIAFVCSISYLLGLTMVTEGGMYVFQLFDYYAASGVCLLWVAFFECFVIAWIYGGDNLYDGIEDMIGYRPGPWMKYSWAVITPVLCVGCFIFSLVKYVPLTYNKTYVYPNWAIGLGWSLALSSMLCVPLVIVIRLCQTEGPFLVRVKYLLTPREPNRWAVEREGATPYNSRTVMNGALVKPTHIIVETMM
UniProt Q9NVC3: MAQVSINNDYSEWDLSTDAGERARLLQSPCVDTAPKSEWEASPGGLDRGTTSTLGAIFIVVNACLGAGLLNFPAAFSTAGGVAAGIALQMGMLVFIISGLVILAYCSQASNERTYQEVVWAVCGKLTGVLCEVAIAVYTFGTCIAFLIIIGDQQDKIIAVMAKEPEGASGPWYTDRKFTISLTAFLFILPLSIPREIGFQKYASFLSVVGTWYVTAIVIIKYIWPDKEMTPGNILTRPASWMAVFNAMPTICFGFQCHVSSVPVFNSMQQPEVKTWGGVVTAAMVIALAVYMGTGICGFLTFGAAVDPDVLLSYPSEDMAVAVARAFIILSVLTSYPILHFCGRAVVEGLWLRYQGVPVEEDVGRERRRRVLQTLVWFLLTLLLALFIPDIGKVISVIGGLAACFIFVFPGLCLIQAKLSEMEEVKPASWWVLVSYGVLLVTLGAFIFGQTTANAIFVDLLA
UniProt Q8NBI5: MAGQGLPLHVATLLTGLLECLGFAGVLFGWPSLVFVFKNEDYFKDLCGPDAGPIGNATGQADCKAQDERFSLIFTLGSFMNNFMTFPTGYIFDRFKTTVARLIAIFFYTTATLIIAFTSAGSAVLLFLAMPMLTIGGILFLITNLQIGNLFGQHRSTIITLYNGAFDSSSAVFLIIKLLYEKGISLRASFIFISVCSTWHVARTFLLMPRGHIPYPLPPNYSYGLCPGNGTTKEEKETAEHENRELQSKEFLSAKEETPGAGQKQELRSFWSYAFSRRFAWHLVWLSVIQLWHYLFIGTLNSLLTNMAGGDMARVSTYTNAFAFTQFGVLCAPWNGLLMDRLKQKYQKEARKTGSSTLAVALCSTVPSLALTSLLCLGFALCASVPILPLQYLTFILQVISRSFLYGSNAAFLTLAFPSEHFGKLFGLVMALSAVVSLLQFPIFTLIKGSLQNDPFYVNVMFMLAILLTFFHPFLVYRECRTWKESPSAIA
UniProt O14975, whole entry, looked up: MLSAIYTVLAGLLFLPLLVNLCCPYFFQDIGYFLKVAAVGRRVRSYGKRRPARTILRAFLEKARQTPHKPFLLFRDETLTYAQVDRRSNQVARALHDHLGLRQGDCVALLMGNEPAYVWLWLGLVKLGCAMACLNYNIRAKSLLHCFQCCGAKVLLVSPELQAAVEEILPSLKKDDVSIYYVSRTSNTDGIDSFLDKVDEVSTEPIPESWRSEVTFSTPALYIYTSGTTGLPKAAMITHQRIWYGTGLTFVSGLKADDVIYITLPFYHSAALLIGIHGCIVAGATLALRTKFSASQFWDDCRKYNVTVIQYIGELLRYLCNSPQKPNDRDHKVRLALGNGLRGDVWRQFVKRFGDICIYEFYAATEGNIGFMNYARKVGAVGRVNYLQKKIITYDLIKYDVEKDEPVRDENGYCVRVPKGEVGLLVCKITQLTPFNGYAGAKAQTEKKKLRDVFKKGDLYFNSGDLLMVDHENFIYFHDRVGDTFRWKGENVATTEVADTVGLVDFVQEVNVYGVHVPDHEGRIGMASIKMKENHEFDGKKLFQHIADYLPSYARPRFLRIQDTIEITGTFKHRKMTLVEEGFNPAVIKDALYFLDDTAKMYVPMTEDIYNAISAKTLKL
UniProt Q6YBV0: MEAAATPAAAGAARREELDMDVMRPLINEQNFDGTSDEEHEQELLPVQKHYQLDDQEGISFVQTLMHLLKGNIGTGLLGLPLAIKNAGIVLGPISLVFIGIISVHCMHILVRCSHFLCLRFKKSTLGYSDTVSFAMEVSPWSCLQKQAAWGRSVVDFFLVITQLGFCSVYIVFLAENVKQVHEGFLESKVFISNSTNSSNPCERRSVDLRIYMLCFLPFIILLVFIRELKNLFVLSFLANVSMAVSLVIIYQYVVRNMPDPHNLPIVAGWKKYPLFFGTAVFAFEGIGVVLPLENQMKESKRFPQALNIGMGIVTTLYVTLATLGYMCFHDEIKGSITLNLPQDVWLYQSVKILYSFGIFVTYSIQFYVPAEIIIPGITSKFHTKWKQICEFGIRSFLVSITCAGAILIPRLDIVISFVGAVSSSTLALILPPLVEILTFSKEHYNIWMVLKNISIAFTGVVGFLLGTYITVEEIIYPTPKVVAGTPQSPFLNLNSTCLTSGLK
UniProt L0R6Q1: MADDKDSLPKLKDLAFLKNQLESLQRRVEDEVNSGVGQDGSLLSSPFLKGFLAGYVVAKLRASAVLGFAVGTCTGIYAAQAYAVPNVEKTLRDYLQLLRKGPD
UniProt Q15599: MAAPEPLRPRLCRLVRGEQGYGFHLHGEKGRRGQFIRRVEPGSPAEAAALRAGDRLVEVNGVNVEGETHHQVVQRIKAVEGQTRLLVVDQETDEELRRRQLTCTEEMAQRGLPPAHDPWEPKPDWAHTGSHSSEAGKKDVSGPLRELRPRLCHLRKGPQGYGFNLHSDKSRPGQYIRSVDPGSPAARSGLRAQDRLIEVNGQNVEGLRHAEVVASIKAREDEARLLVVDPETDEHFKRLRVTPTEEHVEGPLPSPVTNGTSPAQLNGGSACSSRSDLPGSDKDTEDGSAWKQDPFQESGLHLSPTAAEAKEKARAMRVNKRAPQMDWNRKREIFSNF
UniProt Q13485: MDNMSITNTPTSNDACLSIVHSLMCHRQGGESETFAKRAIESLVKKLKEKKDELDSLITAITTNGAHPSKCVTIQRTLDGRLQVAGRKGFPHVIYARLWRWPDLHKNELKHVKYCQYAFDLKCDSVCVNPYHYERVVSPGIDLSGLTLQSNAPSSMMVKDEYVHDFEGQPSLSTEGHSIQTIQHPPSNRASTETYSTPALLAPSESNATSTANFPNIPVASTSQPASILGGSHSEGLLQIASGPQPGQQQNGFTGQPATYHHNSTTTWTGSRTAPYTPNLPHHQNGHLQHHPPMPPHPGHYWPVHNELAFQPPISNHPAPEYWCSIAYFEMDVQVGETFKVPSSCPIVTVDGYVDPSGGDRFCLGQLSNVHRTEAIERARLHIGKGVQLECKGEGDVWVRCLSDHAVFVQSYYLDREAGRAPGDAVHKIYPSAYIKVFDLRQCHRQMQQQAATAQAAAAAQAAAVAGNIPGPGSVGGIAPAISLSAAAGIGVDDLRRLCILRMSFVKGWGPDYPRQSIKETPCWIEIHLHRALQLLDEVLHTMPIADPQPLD
UniProt Q9Y6M5: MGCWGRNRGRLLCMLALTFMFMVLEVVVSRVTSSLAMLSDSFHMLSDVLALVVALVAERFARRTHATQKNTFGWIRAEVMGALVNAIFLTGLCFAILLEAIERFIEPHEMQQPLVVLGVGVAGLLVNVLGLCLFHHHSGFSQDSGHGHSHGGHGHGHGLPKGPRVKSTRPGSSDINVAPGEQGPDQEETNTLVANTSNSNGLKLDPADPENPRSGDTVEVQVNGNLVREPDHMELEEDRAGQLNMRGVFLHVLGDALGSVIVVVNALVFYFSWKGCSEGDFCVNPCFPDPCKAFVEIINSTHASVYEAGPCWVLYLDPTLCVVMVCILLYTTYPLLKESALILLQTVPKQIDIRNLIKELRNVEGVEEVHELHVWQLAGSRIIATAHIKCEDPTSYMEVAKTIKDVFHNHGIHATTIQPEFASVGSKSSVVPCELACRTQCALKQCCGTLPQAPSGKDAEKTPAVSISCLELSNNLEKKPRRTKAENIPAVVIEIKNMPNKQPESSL
UniProt Q8WU79: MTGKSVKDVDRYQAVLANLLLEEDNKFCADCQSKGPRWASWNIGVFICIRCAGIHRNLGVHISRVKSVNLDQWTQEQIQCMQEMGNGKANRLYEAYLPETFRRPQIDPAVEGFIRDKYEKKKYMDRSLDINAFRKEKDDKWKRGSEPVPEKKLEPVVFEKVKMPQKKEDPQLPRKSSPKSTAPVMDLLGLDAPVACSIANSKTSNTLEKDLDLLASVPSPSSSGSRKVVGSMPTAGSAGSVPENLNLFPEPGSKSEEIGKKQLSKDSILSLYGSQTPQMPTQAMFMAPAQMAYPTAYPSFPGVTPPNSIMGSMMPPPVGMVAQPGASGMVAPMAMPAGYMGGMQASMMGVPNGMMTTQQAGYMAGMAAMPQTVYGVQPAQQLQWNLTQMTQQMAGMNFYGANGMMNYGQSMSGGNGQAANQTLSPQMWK
UniProt Q8IYB5: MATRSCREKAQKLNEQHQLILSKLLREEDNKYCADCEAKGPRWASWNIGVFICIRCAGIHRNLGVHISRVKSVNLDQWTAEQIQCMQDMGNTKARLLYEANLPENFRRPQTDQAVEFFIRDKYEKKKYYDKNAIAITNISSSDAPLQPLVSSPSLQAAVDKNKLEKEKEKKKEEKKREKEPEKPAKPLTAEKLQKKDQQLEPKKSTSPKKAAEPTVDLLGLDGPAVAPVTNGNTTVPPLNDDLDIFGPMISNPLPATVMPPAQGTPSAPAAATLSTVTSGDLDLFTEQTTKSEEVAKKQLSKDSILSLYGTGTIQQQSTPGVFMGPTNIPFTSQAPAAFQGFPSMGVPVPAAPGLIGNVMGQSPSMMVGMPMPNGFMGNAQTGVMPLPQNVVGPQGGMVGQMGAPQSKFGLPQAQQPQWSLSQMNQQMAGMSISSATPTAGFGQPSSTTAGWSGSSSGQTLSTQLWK

compound: NC1(c2ccc(-c3nc4ccn5c(=O)[nH]nc5c4cc3-c3ccccc3)cc2)CCC1; experiment: log2 fold change, soluble protein after heating vs DMSO (PISA); higher = thermal stabilisation; K562 lysate, 10 uM; active = over 0.2 and 3.5 SD of the protein, either way, in both replicates (recomputed)
Summary of the method: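 Dounce homogenisation of K562 pellets in PBS pH 7.4 with 1 mM MgCl2 produced a crude extract, used at 1 mg/mL protein. Exposure to 10 μM compound lasted 30 min, and aliquots were then heated for 3 min across 48°C-58°C, pooled and brought to 0.5% NP-40 at 4°C. The supernatant after 21,000xg for 90 min was quantified by TMTpro 16plex LC-MS/MS with channel sums equalised. Duplicate values are given as log-two fold change in thermal stability relative to solvent controls.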

log2 fold change, inactive:
SLIRP (UniProt Q9GZT3) 0.01
SLC25A13 isoform 2 (UniProt Q9UJS0) -0.017
SLC2A1 (UniProt P11166) 0.052
SLC25A22 (UniProt Q9H936) 0.026
SLC44A2 (UniProt Q8IWA5) 0.023
SLC33A1 (UniProt O00400) 0.024
SLC25A3 isoform 2 (UniProt Q00325) 0.008
SLC38A9 (UniProt Q8NBW4) 0.005
SLC6A6 (UniProt P31641) 0
SLC7A5 (UniProt Q01650) -0.003
SLC38A7 (UniProt Q9NVC3) 0.032
SLC43A3 isoform 2 (UniProt Q8NBI5) 0.046
SLC4A1AP (UniProt Q9BWU0) 0.009
SLC27A2 (UniProt O14975) 0.029
SLC36A4 (UniProt Q6YBV0) 0.055
SLC26A6 (UniProt Q9BXS9) -0.128
SLC25A21 (UniProt Q9BQT8) -0.013
SLC25A4 (UniProt P12235) 0.034
SLC38A10 (UniProt Q9HBR0) 0.023
SLC25A42 (UniProt Q86VD7) -0.073
SMAP (UniProt O00193) -0.032
SLC3A2 isoform 3 (UniProt P08195) 0.014
SLC25A25 isoform 3 (UniProt Q6KCM7) -0.025
SLC9A1 (UniProt P19634) 0.093
SLC4A7 isoform 7 (UniProt Q9Y6M7) -0.023
SLC35A4 (UniProt L0R6Q1) -0.077
SLC9A3R2 (UniProt Q15599) -0.005
SMAD4 (UniProt Q13485) -0.025
SLC6A8 isoform 2 (UniProt P48029) -0.077
SLC4A2 (UniProt P04920) 0.008
SLC30A1 (UniProt Q9Y6M5) 0.013
SLC25A31 (UniProt Q9H0C2) -0.02
SMAP2 (UniProt Q8WU79) 0.022
SLC6A8 (UniProt P48029) -0.015
SLC25A5 (UniProt P05141) 0.012
SLC25A1 (UniProt P53007) 0.019
SMAP1 isoform 2 (UniProt Q8IYB5) 0.023

Three consecutive records out of the list so far, quoted:
log2 fold change, inactive:
SLC35A4 (UniProt L0R6Q1) -0.077
SLC9A3R2 (UniProt Q15599) -0.005
SMAD4 (UniProt Q13485) -0.025
